Assay results taken from PubChem BioAssay AID1347076 (National Center for Advancing Translational Sciences (NCATS), 2019).
The campaign covered roughly 400,000 compounds. About 13,000 (3.2%) were called active. Inconclusive means that the source gave no clear call. Such entries were picked first, then a sample of the others. The call rests on the fitted dose curve; in most records, active means well fitted cell-killing curve with a large enough effect; inconclusive means small, poorly fitted or top-dose-only effect, or effect the other way; inactive means flat fitted curve, though single readings scatter. Potencies of inconclusive entries are doubtful fits and often do not repeat.

assay: qHTS assay for MDR1-selective chemotherapeutics: Primary screen using the drug-selected MDR subline cells KB-V1; settings: KB-V1 MDR cells viability, CellTiter-Glo, 72 h; activity change, negative = cytotoxicity: at 46.1 µM (top of the series); further: nearly all actives have a fitted effect of over 60% in size
Method in brief: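 KB-V1 cells (P-gp-expressing MDR subline of KB-3-1) in phenol-red-free DMEM with 10% FBS were exposed to library compounds over a concentration series for 72 h at 37 degrees C. Viability read by CellTiter-Glo luminescence; concentration-effect curves fitted after normalization.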
On the % scale 0 is the no-effect control and ±100 the full control effect; potency means the concentration at half of the fitted maximal effect.

Row | Structure (SMILES) | activity change, negative = cytotoxicity | Potency
1 | COc1cc(CCC(=O)NCc2ccc3c(c2)CCN3C(=O)c2ccccc2)cc(OC)c1OC | inactive: -6.54% | 
2 | CCOC(=O)C1(CC2CC2)CCN(Cc2cc(Cl)c(O)c(OC)c2)CC1 |  | inconclusive: 14.6 µM [cytotoxic, partial curve]
3 | COc1ccc([C@@H]2CC=C(C(=O)O)[C@H](c3ccc(F)cc3)N2S(=O)(=O)c2ccc(Cl)cc2)cc1 | inactive: -1.39% | 
4 | Cc1cc2cc(C)c3nnc(SCC(=O)Nc4ccc(S(=O)(=O)N5CCCCC5C)cc4)n3c2cc1C (centres undefined) | inactive: 0.678% | 
5 | Cc1ccc(C)c(N2CCN(C(=O)C3CCCN(S(=O)(=O)c4c(C)noc4C)C3)CC2)c1 (centres undefined) | inactive: -18.3% | 
6 | O=C(COC(=O)c1c(F)cccc1F)Nc1cccc(S(=O)(=O)N2CCCCC2)c1 |  | inconclusive: 29.1 µM [rising, single point]
7 | COc1ccc(C(C(=O)NC(C)(C)C)N(Cc2ccc(C)cc2)C(=O)CCC(=O)Nc2cc(C)on2)cc1 (centres undefined) | inactive: -20.3% | 
8 | COc1ccccc1N1CCN(c2cc(=O)n(Cc3ccc(F)cc3)c(=O)[nH]2)CC1 |  | inconclusive: 16.4 µM [cytotoxic, partial curve]
9 | Cc1ccc(-n2nc3ccc(NC(=O)COc4ccccc4C)cc3n2)cc1 |  | inconclusive: 29.1 µM [rising, single point]
10 | Cn1nc(C(C)(C)C)cc1C(=O)N1CCCCC1c1cc(C(=O)NCc2ccc(F)cc2)no1 (centres undefined) |  | active: 4.11 µM
11 | COc1ccc(F)cc1-c1cc(C(=O)NCc2cc(C(F)(F)F)cc(C(F)(F)F)c2)[nH]n1 | inactive: -5.74% | 
12 | Cn1cnc([N+](=O)[O-])c1Oc1cccc2ccccc12 |  | inconclusive: 29.1 µM [cytotoxic, single point]
13 | Cc1cccc(-n2c(SCC(=O)NCc3ccco3)nc3ccccc3c2=O)c1 |  | active: 10.3 µM
14 | COc1ccccc1-c1oc2ccccc2c1C#CC1(N)CCCCC1 |  | inconclusive: 18.4 µM [cytotoxic, partial curve, poor fit]
15 | O=C(CCNS(=O)(=O)c1ccccc1F)NCc1ccc2c(c1)OCO2 | inactive: 18.2% | 
16 | O=C1N(c2cccc(Cl)c2)C(c2ccc(Cl)cc2)N2CCCN12 (centres undefined) |  | inconclusive: 23.1 µM [cytotoxic, partial curve]
17 | Cc1cccnc1C1=NOC(Cc2ccccc2)C(=O)N1C (centres undefined) | inactive: -6.86% | 
18 | Nc1c(C(=O)O)ccc2c1C(=O)c1ccccc1C2=O |  | inconclusive: 23.1 µM [cytotoxic, single point]
19 | CC1CCc2nc3sc4c(c3c(N)c2C1)CCCC4 (centres undefined) |  | inconclusive: 14.6 µM [cytotoxic, partial curve]
20 | O=C(C1CCCCN1S(=O)(=O)c1ccc(F)cc1)N1CCN(c2ccccc2F)CC1 (centres undefined) |  | inconclusive: 2.91 µM [rising, partial curve, poor fit]
21 | CC(=O)c1sc2nc(-c3cccs3)ccc2c1N |  | inconclusive: 18.4 µM [cytotoxic, single point]
22 | CCc1ccc(/C=C2/C(=O)N(c3ccccc3)C(=S)N2CC(=O)OC)s1 |  | inconclusive: 18.4 µM [cytotoxic, single point]
23 | CC(=O)c1c(C)[nH]c(C(=O)Nc2ccc(C)c(S(=O)(=O)Nc3ccc(C)cc3C)c2)c1C | inactive: -19.7% | 

Row | Structure (SMILES) | activity change, negative = cytotoxicity | Potency
24 | O=C(Nc1cccc(S(=O)(=O)N2CCOCC2)c1)C1CCCCN1S(=O)(=O)c1ccccc1 (centres undefined) |  | inconclusive: 25.9 µM [cytotoxic, single point]
25 | O=C1CC(SC2=NCCS2)C(=O)N1c1cccc(Cl)c1Cl (centres undefined) |  | inconclusive: 20.6 µM [rising, single point]
26 | Cc1cccc(C)c1NC(=O)c1cccc2c1C(=O)N(C1CCCCC1)C2 |  | inconclusive: 20.6 µM [cytotoxic, single point]
27 | CCN(CC)C(=O)c1cccc(-c2csc(C(O)c3ccco3)n2)c1 (centres undefined) | inactive: -3.77% | 
28 | O=C(N/N=C(/CC(=O)c1cccs1)C(F)(F)F)c1ccc(O)cc1 | inactive: 22.8% | 
29 | Cn1c(=O)c2[nH]c(CCCc3ccc([N+](=O)[O-])cc3)nc2n(C)c1=O |  | inconclusive: 0.116 µM [cytotoxic, full curve, poor fit]
30 | Cn1c2c(sc1=O)CCC2 | inconclusive: 11.8% | 
31 | CN(C)C(=O)c1nc2ccc(Cl)cn2c1CN1CCCC(OCc2cccnc2)C1 (centres undefined) | inactive: 0.936% | 
32 | COC(=O)c1ccc(CN(Cc2ccc(C(=O)OC)o2)C(C)(C)C)o1 |  | inconclusive: 25.9 µM [cytotoxic, partial curve, poor fit]
33 | CCCCn1c(=N)n(CC(O)COc2cccc(C)c2)c2ccccc21 (centres undefined) |  | active: 20.6 µM
34 | CCNC(=O)N(CC)C[C@H]1N[C@@](Cc2ccccc2)(C(=O)OC)[C@H]2C(=O)N(Cc3ccccc3)C(=O)[C@@H]12 | inactive: 0.0002% | 
35 | N#Cc1cnc(Nc2nc3ccccc3o2)nc1-c1ccccc1 |  | inconclusive: 9.2 µM [cytotoxic, single point]
36 | Cc1cccc(C2=NOC(=O)/C2=C\c2ccccc2F)c1 | inactive: -12% | 
37 | OCCSc1nc2ccccc2n1CCOc1ccccc1 |  | inconclusive: 23.1 µM [cytotoxic, single point]
38 | CC1CCCN(C(=O)CSc2nnc3n(C4CCCC4)c(=O)c4ccccc4n23)C1 (centres undefined) | inactive: 4.38% | 
39 | CC(C)CCNC(=O)Cc1ccc(NC(=O)N2CCCCc3ccccc32)cc1 |  | inconclusive: 29.1 µM [rising, single point]
40 | COc1ccc(C(=O)C2CCCN(Cc3sc(N4CCCC4)nc3Cl)C2)c(OC)c1 (centres undefined) |  | inconclusive: 32.6 µM [cytotoxic, single point]
41 | CCCCC(=O)NC1CC(=O)N(c2ccc3c(c2)OCCO3)C1 (centres undefined) |  | inconclusive: 16.4 µM [rising, single point]
42 | CCOC(=O)CN1N=C(/C=C/c2ccc(OC)cc2)CCC1=O |  | inconclusive: 29.1 µM [cytotoxic, single point]
43 | CCn1c(CNC(=O)c2cccc(C)c2)nnc1SCC(=O)Nc1nnc(C)s1 |  | inconclusive: 29.1 µM [rising, single point]
44 | CCCCNCCS(=O)(=O)NCc1ccccc1OC | inactive: -4.72% | 
45 | COCc1cc(C)nc(SCc2ccc(Br)cc2)c1C#N |  | inconclusive: 29.1 µM [cytotoxic, single point]
46 | Cc1ccc(C)c(NC(=O)CN(C)C(=O)c2cccc(S(=O)(=O)N3CCN(Cc4ccccc4)CC3)c2)c1 |  | inconclusive: 6.51 µM [cytotoxic, partial curve]

An excerpt from above in order of length of the SMILES, ascending:
Row | Structure (SMILES) | activity change, negative = cytotoxicity | Potency
42 | CCOC(=O)CN1N=C(/C=C/c2ccc(OC)cc2)CCC1=O |  | inconclusive: 29.1 µM [cytotoxic, single point]
16 | O=C1N(c2cccc(Cl)c2)C(c2ccc(Cl)cc2)N2CCCN12 (centres undefined) |  | inconclusive: 23.1 µM [cytotoxic, partial curve]
39 | CC(C)CCNC(=O)Cc1ccc(NC(=O)N2CCCCc3ccccc32)cc1 |  | inconclusive: 29.1 µM [rising, single point]
22 | CCc1ccc(/C=C2/C(=O)N(c3ccccc3)C(=S)N2CC(=O)OC)s1 |  | inconclusive: 18.4 µM [cytotoxic, single point]
24 | O=C(Nc1cccc(S(=O)(=O)N2CCOCC2)c1)C1CCCCN1S(=O)(=O)c1ccccc1 (centres undefined) |  | inconclusive: 25.9 µM [cytotoxic, single point]
34 | CCNC(=O)N(CC)C[C@H]1N[C@@](Cc2ccccc2)(C(=O)OC)[C@H]2C(=O)N(Cc3ccccc3)C(=O)[C@@H]12 | inactive: 0.0002% | 

(listing goes on)

Row | Structure (SMILES) | activity change, negative = cytotoxicity | Potency
47 | Cc1ccc(Nc2nc(CSc3nnnn3C)cs2)cc1 |  | active: 23.1 µM
48 | CN1C(C(=O)NCc2ccco2)CC2Cn3c(nc4cc(Cl)c(Cl)cc43)C21 (centres undefined) | inactive: -0.748% | 
49 | COc1ccc(-c2n[nH]c3c2C(c2ccc(OC)c(OC)c2)N(c2ccccc2)C3=O)cc1 (centres undefined) |  | active: 14.6 µM
50 | CCOC(=O)c1c(C)[nH]c(C)c1S(=O)(=O)N1CCC(C(=O)Nc2cc(Cl)ccc2OC)CC1 | inactive: 0% | 
51 | O=C(Nc1ccc2ccccc2c1)c1ccc(Cl)cc1 | inactive: -26.5% | 
52 | Cn1c(=O)c(C(=O)CSc2nncs2)c(N)n(Cc2ccccc2)c1=O |  | inconclusive: 16.4 µM [cytotoxic, single point]
53 | CN(CC(=O)NC1CC(C)(C)NC(C)(C)C1)S(=O)(=O)c1cc(Cl)ccc1Cl |  | inconclusive: 29.1 µM [rising, single point]
54 | COc1ccc(-c2csc(Cc3nnc(N4CCOCC4)n3-c3ccccc3)n2)cc1 |  | active: 18.4 µM
55 | CCc1ccc(NCc2cc3c(C)nn(-c4ccccc4)c3[nH]c2=O)cc1 |  | active: 18.4 µM
56 | CCCc1cc(-c2[nH]ncc2-c2ccc(C(=O)OCC)o2)c(O)cc1O |  | inconclusive: 16.4 µM [cytotoxic, single point]
57 | O=C(c1ccccn1)N1N=C2/C(=C/c3ccc(F)cc3)CCCC2C1c1ccc(F)cc1 (centres undefined) |  | inconclusive: 9.2 µM [cytotoxic, partial curve]
58 | CC(C)CNC(=O)c1coc(=O)c(Br)c1 |  | inconclusive: 11.2 µM [cytotoxic, partial curve]
59 | COc1cccc(-n2c(=O)[nH]cc(C(=O)Nc3ccc4c(c3)OCCO4)c2=O)c1 |  | inconclusive: 7.31 µM [rising, partial curve, poor fit]
60 | COCc1nc(-c2ccc(-c3ccc(OC)cc3)nc2OC)no1 |  | inconclusive: 20.6 µM [cytotoxic, single point]
61 | O=C(CNC(=O)c1ccc(F)cc1)OCc1cc(=O)n2nc(C3CC3)sc2n1 | inactive: -2.76% | 
62 | COC(=O)[C@@]1(Cc2ccc(F)cc2)[C@H]2c3cc(C(=O)N4CCCC4)n(Cc4cc(C)n(C)n4)c3C[C@H]2CN1C(=O)c1ccccc1 |  | inconclusive: 16.4 µM [cytotoxic, partial curve]
63 | COc1ccc(-c2c(C)nn(Cc3ccccc3)c2N)cc1 |  | active: 20.6 µM
64 | O=C(CNC(=O)C1CCCCC1)OCc1ccccc1 |  | inconclusive: 0.092 µM [rising, partial curve, poor fit]
65 | Cc1ccc(NS(=O)(=O)c2cc(OCC(N)=O)c(C)cc2Cl)cc1 |  | inconclusive: 16.4 µM [cytotoxic, single point]
66 | CCC(=O)Nc1cccc(NC(=O)c2ccc(C)cc2Cl)c1 |  | inconclusive: 20.6 µM [cytotoxic, single point]
67 | COc1cccc(-c2nc(C(=O)NCCCN3CCOCC3)cc3c2[nH]c2ccccc23)c1 |  | active: 18.4 µM
68 | Cc1c(C(=O)Nc2cccc(C(F)(F)F)c2)oc2ccc3c(c12)C(=O)CC(C)(C)O3 |  | inconclusive: 23.1 µM [rising, partial curve, poor fit]
69 | C[C@H]1CN([C@@H](C)CO)C(=O)CCCn2cc(nn2)CO[C@@H]1CN(C)C(=O)Nc1ccc(N2CCCCC2)cc1 |  | inconclusive: 18.4 µM [rising, single point]
